Source: paper PMC3407795 (EJNMMI Research, 2012)

Experiment: peptide synthesis
Conditions: whole synthesis

| Substance | final HPLC purity [%] |
| --- | --- |
| PEPTIDE1{[XDOTA].A.G.C.K.N.F.F.[dW].K.T.F.T.S.C}$PEPTIDE1,PEPTIDE1,4:R3-15:R3$$$V2.0 | 90 |
| PEPTIDE1{[XDOTA].A.G.C.K.N.F.F.W.K.T.F.T.S.C}$PEPTIDE1,PEPTIDE1,4:R3-15:R3$$$V2.0 | 98 |

HELM strings list residues between dots; [ac] is acetyl, [am] amide, other brackets name non-standard units.
